In test [1] the test system is 5-hydroxytryptophan-induced tremors. The test can be described thus: Potentiation of 5-hydroxytryptophan-induced behavioral symptoms (tremors) in vivo. Further details: species or system Swiss-Webster CD male mice. Particulars: Mus musculus, po, 1 h, read-out: ED50 (tremors), mice, oral, then 100 mg./kg. i.p. 5HTP one hour later.
The subject of a further test is mice. The test is described as follows: Reduction of behavioral despair in vivo (modified Porsolt mouse swim test). Further details: species or system Swiss-Webster CD male mice. To be noted: sc, 1 h, read-out: % MPE50 (dosage producing a 50% reduction in immobility relative to control).

A value given as a limit tells only on which side of the number the result lay.

`CN[C@H]1CC[C@H](c2ccc(Cl)c(Cl)c2)c2ccccc21.Cl` [Example 2, Trans-(1S)-N-methyl-4-(3,4-dichlorophenyl)-1,2,3,4-tetrahydro-1-naphthalenamine Hydrochloride]: the ED50 in test [1] is below 10 mg/kg.

Consider `CN[C@@H]1CC[C@@H](c2ccc(Cl)c(Cl)c2)c2ccccc21.Cl` [Example 3, Trans-(1R)-N-methyl-4-(3,4-dichlorophenyl)-1,2,3,4-tetrahydro-1-naphthalenamine Hydrochloride], for which the ED50 in test [1] is below 10 mg/kg; in the test with mice, 1.2 mg/kg.

The record behind these values is patent publication US4556676A, “Antidepressant derivatives of trans-4-phenyl-1,2,3,4-tetrahydro-1-naphthalenamine” (priority 1980, dated 1985).
